PubChem BioAssay AID652272 | Drosophila RNAi Screening Center | 2013
Aim: 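Finding fly genes that regulate Hedgehog signal transduction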 (primary screen). Cells: Drosophila clone 8 (Cl8) cells. Reagent: long dsRNA against Drosophila genes. Measurement: 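Firefly light from a Hedgehog-responsive ptc promoter reporter and Renilla reference light, both read on a plate reader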. Reading the numbers: firefly Hh reporter signal: higher = more ptc reporter light; Renilla reference signal: higher = more Renilla control light. Hit rule: 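Hit when the z-score averaged over two replicates is under -2 or over +3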. Calls: active = hit: reporter lowered or raised; inactive = not a hit.
The deposit covers about 21,000 reagents; shown is an unselected part of those that have a named target and a result. In the full data, 503 (2.4%) are marked active. 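Raw plate light values, not normalised; calls rest on replicate z-scores that were not deposited; hits include reporter decreases as well as increases.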 Entries without a mark were called inactive. The numbers tell different reagents against one gene apart. A plus sign joins genes that one reagent is predicted to hit. No sequences are given here. Not stated in the record: the amount of reagent, the time to read-out.

no.	gene	reagent no.	firefly Hh reporter signal, replicate 1	firefly Hh reporter signal, replicate 2	firefly Hh reporter signal, replicate 3	Renilla reference signal, replicate 1	Renilla reference signal, replicate 2
1	CG43183	1	75926	1.83e5		1556	8675
2	CG2006 + Spase12	1	96173	1.14e5		3442	2769
3	gdrd	1	1.15e5			3424	2896
4	dor	1	2.14e5	1.23e5		5226	3948
5	salm	1	1.07e5	82311		2824	7690
6	unc-4	1	1.34e5	5.47e5	3.40e5	5140	3611
7	aspr	1	77498	2.66e5		3043	10016
8	aspr	2	91482	2.01e5		3472	7954
9	CG15399	1	1.43e5	1.25e5		3355	3424
10	mEFTu2	1	1.40e5	64440		5408	1882
11	CG17118	1	1.20e5	43044		3008	3629
12	RpS11	1	2.97e5 (active)	72912	29616	27152	4196
13	dve	1	1.33e5	59104		3367	4896
14	CG43347	1	86888	2.52e5		2224	8722
15	CG43347	2	2.55e5 (active)	90088	2.70e5	2130	2418
16	CG9184	1	1.53e5	6.36e5	53232	5186	43708
17	CG7985	1	1.42e5	1.33e5		6100	5074
18	CG32985	1	98211	34509		2224	3040
19	CG13623	1	5.95e5	83428		32009	2012
20	CG10834	1	77772	54364		2051	4024

Not a retest: entries from further up.
no.	gene	reagent no.	firefly Hh reporter signal, replicate 1	firefly Hh reporter signal, replicate 2	firefly Hh reporter signal, replicate 3	Renilla reference signal, replicate 1	Renilla reference signal, replicate 2
5	salm	1	1.07e5	82311		2824	7690
6	unc-4	1	1.34e5	5.47e5	3.40e5	5140	3611
7	aspr	1	77498	2.66e5		3043	10016

Next results:
no.	gene	reagent no.	firefly Hh reporter signal, replicate 1	firefly Hh reporter signal, replicate 2	firefly Hh reporter signal, replicate 3	Renilla reference signal, replicate 1	Renilla reference signal, replicate 2
21	crn	1	61052 (active)	24172		6844	1572
22	crn	2	72804 (active)	32759		7443	1829
23	crn	3	58037 (active)	27078		2704	2544
24	BORCS7 + CG13430	1	86736	63532		3973	2664
25	BORCS7 + CG13430	2	77148	47856		2250	3042
26	mys	1	60918	1.46e5		2779	6717
27	mle	1	88608	68793		1754	4715
28	GstZ1	1	1.41e5	91051		5088	3684
29	CG15042	1	92214	2.13e5		2841	9431
30	CG10126	1	1.61e5	1.10e5		6016	4180
31	park + Targ3	1	1.88e5	1.06e5		7797	4272
32	ClC-b	1	72000	44021		1760	3360
33	hd	1	56274	1.13e5		2196	3563
34	Cpr97Ea	1	1.01e5	97985		3020	2850
35	CG6834	1	70626	1.13e5		2493	3171
36	CG9175	1	1.40e5	90085		6264	3536
37	Cyp28d2	1	1.09e5	49856		2826	4976
38	CG2224	1	1.04e5	1.04e5		4002	3223
39	Nsun5	1	99984	76761		4219	3008
